Some compounds share one wording; it may come from a single statement.
experiment: Breath chromatograms of patients with bacterially-induced fevers; type: in vivo, human; conditions: bacterially-induced fevers vs control group, 0.5 L breath

SMILES | Levels in breath of febrile non-malarial patients
C=CCSC [AMS, Allyl methyl sulphide] | very low and the same in fever and control groups
CCCSC [MP, 1-Methylthio propane] | very low and the same in fever and control groups
C/C=C\SC [ZMP, (Z)-1-Methylthio-1-propene] | very low and the same in fever and control groups
C/C=C/SC [EMP, (E)-1-Methylthio-1-propene] | very low and the same in fever and control groups
